These results are taken from the supplement of paper PMC11006884.

Protein sequences, listed by entry. Tags and fused reporters are not part of them. Lines headed by an entry give the natural chain unless they say otherwise; changes in a name come on top.
UniProt Q96G74: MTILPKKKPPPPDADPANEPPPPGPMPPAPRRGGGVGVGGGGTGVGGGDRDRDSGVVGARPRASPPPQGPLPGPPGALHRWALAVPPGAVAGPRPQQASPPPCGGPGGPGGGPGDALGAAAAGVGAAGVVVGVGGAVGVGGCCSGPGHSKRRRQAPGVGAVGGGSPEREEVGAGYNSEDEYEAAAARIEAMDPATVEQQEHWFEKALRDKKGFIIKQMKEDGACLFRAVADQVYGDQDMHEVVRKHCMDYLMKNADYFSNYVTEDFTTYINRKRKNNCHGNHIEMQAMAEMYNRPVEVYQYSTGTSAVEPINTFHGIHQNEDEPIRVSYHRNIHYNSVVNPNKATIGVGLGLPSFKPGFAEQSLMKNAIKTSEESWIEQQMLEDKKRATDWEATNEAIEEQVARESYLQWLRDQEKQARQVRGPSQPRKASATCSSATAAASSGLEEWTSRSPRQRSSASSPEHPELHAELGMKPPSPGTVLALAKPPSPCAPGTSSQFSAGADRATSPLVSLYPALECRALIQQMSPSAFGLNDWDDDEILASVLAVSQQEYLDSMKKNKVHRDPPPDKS
UniProt Q92782, whole entry, looked up: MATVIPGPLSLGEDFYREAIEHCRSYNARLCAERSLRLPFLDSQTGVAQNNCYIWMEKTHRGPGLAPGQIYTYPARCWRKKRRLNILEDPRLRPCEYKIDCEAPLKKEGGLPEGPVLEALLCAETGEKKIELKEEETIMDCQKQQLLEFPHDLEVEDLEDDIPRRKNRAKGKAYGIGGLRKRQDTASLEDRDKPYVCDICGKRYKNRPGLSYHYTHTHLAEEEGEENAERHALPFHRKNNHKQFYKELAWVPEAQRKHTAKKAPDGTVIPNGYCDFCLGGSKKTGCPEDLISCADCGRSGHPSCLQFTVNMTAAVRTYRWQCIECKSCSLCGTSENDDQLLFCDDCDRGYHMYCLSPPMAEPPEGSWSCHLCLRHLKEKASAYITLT
UniProt Q96EK6: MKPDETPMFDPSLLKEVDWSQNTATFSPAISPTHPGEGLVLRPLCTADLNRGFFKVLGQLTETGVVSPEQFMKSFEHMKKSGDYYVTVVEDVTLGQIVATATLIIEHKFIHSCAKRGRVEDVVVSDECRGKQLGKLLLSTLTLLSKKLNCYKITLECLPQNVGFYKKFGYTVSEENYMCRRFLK
UniProt Q96EK5: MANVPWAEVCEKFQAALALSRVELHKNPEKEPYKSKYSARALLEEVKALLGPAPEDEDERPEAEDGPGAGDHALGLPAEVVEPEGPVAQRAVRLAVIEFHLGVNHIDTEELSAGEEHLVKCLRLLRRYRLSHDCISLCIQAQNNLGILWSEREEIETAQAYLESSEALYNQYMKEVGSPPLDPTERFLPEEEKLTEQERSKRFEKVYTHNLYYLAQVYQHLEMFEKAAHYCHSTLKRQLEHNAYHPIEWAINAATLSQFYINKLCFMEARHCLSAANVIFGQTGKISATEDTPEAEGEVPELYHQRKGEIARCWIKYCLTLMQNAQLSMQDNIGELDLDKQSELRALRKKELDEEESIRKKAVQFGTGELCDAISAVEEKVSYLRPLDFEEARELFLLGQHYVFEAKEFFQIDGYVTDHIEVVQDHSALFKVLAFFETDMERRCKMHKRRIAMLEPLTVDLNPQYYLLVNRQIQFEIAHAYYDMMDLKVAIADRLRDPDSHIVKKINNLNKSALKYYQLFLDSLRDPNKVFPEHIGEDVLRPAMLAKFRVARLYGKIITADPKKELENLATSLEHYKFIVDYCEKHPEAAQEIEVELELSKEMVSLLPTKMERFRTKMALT
UniProt Q96BN8, whole entry: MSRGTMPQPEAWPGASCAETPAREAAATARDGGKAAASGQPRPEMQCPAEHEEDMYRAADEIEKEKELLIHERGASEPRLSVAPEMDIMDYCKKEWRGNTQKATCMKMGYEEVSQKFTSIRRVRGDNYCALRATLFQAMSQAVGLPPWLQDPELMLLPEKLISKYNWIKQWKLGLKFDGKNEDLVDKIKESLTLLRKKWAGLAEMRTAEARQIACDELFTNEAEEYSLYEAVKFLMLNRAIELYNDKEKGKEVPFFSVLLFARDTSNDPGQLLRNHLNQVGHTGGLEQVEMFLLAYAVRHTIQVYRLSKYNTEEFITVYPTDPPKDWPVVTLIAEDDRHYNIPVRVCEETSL
UniProt Q92575: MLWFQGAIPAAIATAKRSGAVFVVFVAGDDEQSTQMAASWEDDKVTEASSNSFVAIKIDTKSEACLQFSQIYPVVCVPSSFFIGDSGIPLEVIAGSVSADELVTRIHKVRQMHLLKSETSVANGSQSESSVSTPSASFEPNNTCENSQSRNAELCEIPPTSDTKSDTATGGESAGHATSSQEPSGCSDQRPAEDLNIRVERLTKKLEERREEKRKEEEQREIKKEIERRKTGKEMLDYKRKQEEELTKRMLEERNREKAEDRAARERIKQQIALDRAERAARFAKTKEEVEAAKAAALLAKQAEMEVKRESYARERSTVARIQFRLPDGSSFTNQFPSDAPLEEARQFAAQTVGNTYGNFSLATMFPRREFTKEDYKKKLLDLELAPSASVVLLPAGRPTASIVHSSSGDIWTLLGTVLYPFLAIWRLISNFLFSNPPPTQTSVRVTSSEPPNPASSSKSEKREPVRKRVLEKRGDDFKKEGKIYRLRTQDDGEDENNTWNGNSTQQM
UniProt Q92576, whole entry, looked up: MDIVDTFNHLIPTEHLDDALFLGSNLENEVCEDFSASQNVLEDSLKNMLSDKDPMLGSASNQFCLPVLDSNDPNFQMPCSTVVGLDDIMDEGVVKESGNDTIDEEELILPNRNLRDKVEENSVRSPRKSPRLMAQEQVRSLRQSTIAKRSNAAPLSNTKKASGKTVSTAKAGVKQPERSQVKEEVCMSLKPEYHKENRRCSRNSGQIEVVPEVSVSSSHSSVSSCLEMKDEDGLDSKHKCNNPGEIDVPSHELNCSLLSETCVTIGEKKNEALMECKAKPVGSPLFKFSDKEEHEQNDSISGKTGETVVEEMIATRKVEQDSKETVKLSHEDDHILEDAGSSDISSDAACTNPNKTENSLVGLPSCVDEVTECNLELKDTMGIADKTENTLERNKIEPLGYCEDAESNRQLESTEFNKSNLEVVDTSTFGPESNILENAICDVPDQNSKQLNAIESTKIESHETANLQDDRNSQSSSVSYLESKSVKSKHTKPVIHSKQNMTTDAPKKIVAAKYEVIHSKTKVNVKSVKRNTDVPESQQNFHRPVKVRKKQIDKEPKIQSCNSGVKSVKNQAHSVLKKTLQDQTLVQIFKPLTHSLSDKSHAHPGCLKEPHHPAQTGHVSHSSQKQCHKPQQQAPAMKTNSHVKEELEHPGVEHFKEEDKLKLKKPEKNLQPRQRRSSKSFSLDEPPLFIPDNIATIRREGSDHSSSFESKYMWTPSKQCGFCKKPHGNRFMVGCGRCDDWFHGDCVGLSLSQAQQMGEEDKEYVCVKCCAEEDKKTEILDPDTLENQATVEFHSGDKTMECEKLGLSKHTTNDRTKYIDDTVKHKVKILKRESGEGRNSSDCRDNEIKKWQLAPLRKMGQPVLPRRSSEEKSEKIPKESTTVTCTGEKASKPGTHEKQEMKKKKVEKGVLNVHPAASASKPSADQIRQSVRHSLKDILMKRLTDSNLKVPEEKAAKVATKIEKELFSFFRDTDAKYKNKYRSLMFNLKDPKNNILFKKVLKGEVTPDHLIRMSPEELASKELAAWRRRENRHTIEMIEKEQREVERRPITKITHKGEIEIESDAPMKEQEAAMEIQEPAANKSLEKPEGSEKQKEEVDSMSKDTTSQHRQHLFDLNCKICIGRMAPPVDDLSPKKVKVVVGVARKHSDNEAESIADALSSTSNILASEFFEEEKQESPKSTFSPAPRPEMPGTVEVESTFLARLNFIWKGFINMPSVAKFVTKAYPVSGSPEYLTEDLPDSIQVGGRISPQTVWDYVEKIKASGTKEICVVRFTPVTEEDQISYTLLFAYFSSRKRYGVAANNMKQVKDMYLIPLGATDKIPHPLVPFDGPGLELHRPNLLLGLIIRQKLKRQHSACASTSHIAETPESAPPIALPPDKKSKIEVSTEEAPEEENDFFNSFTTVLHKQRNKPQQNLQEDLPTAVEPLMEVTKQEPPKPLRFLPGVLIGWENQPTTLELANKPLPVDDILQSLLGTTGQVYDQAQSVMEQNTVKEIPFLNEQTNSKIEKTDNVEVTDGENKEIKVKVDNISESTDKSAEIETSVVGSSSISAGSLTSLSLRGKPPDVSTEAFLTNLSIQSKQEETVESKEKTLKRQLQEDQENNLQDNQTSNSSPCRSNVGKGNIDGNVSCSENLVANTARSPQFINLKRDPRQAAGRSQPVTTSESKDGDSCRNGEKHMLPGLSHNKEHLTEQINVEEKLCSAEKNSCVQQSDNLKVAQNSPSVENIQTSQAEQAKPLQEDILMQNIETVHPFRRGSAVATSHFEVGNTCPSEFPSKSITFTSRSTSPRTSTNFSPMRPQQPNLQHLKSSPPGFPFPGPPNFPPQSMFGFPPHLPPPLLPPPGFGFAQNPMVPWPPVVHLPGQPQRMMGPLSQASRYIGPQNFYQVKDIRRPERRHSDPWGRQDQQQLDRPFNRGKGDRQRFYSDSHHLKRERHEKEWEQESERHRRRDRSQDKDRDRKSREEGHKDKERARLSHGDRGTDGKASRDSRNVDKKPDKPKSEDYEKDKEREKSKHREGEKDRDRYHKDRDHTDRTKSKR
UniProt Q969U7: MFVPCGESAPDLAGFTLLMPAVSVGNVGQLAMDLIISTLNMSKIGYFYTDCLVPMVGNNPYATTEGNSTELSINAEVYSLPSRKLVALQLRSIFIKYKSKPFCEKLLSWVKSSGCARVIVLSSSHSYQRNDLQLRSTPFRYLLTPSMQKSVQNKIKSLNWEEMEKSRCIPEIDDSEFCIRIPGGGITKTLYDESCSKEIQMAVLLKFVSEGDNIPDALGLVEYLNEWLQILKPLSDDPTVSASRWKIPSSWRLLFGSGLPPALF
UniProt Q92796: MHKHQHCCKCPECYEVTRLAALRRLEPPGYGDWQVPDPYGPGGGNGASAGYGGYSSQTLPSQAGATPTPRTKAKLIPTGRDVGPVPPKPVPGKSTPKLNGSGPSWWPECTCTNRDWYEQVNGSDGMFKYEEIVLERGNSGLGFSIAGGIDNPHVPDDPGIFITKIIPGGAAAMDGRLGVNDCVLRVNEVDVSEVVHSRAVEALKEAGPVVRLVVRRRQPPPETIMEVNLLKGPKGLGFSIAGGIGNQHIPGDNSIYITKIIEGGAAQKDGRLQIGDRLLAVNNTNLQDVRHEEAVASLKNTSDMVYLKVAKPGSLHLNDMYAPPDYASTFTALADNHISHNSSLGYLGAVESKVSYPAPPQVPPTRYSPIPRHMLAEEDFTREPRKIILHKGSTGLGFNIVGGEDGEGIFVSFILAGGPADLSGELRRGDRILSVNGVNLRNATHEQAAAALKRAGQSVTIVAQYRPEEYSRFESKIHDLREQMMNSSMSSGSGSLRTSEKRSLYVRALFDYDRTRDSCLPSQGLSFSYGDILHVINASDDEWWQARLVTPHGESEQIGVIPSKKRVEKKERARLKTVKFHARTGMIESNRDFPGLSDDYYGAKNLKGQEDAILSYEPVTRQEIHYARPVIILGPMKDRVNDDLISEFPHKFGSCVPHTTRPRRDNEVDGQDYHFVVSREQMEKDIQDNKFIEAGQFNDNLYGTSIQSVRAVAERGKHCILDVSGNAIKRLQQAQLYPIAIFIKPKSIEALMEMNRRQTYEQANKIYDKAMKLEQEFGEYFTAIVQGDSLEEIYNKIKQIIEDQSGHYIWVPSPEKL
UniProt Q96DG6: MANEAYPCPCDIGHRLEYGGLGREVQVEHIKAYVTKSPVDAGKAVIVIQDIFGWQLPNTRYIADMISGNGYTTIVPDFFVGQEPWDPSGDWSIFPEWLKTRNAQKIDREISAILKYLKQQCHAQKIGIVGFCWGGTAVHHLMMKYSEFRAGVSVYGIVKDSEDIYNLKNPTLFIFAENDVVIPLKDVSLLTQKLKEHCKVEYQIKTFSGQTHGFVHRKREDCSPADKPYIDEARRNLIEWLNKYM
UniProt Q96FZ2: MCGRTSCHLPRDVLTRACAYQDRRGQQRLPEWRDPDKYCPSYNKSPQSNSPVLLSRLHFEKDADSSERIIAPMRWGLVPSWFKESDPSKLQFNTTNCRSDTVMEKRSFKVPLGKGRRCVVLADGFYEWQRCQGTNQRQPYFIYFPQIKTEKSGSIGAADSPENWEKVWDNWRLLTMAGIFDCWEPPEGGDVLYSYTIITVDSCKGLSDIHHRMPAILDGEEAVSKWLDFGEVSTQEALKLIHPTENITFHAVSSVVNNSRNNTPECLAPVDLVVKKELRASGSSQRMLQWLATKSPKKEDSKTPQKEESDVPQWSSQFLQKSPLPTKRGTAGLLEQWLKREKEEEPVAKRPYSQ

Only a part is listed here, and it is no random draw.

Compound in this assay: COC(=O)C#Cc1ccccc1 [methyl 3-phenylpropiolate]
Nature of the assay: log2 ratio of iodoacetamide-alkyne labeling of the cysteine site, DMSO over compound (competition); higher = stronger covalent engagement of the cysteine by the compound, active = 1 or more. Particulars: 500 µM; treatment time 1 h; system: HEK293T cell lysate. In short, it runs like this:
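HEK293T lysate (2 mg/mL) was treated with DMSO or electrophile (500 µM, 1 h, ambient temperature), then iodoacetamide alkyne (1 h), clicked to sCIP-TMT reagents, pooled, trypsin-digested overnight at 37 °C, streptavidin-enriched and acid-eluted. Peptides were run on Orbitrap Eclipse LC-MS/MS with FAIMS and quantified in FragPipe. The log2 competition ratio per cysteine is mean control-channel over mean compound-channel reporter intensity. Duplicate channels and three replicates were used, and cysteines quantified in only one replicate were excluded.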
Consider OTUD5 C434 (UniProt Q96G74), for which the “log2 ratio of iodoacetamide-alkyne labeling” value (“log2 ratio” below) was inactive: 0.598.
The value for DPF1 C149 (UniProt Q92782) was inactive: 0.289; that for GNPNAT1 C45 (UniProt Q96EK6) was inactive: 0.234; that for UniProt Q969V6_C326 was active: 1.42.
As for CREBBP C1200 (UniProt Q92793), the “log2 ratio” value is inactive: 0.966.
Then UniProt Q92616_C648, with inactive: 0.135; and USP7 C510 (UniProt Q93009), with inactive: 0.132; and RPL36AL C72 (UniProt Q969Q0), with inactive: 0.0561.
Then CREBBP C1199 (UniProt Q92793), with inactive: 0.966; and UniProt Q96EK5_C10, with inactive: -0.101; and USP7 C223 (UniProt Q93009), with inactive: 0.27.
Then SYMPK C848 (UniProt Q92797), with inactive: 0.491.
For UniProt Q92616_C2558, the “log2 ratio” value is inactive: 0.196.
Consider USP9X C1061 (UniProt Q93008), for which the “log2 ratio” value is inactive: 0.0678.
Regarding UniProt Q96BN8_C347, the “log2 ratio” value was inactive: 0.256.
The value for UBXN4 C144 (UniProt Q92575) was inactive: 0.748; that for PHF3 C843 (UniProt Q92576) was inactive: 0.585; that for PSMG2 C168 (UniProt Q969U7) was inactive: 0.126.
The value for ATG2B C243 (UniProt Q96BY7) was inactive: 0.198; that for UniProt Q96EH3_C233 was inactive: -0.205.
Then DLG3 C519 (UniProt Q92796), with inactive: 0.214; and CMBL C10 (UniProt Q96DG6), with inactive: 0.143.
In the case of UniProt Q96FZ2_C266, the “log2 ratio” value is inactive: 0.0204.
